Measurements reported in patent US20090232786A1, “HERBAL COMPOSITION FOR CANCER TREATMENT” (priority 2001, published 2009).
Some of these results come from one statement about several compounds together.

Tested on: serum PSA
Assay: Patient case studies: serum PSA
Format: in vivo, human
Settings: Example 11, person, prostate cancer; combined Androcur 100 mg 3 times per day oral + Zolodex 3.6 mg s.c. per three months; PSA before 300
Procedure: Serum PSA was measured to be 300. This patient then started hormone therapy including an oral administration of 100 mg of Androcur (Cyproterone Acetate) 3 times per day, and a subcutaneous injection of 3.6 mg of Zolodex (Goserelin Acetate Implant) once per three months. The prostate has been monitored since with serum PSA levels, varying between “28-62”.
In May 2001, the PSA level was measured to be 41. At that time, the patient stopped taking Androcur and Zolodex, and started to take Casodex 50 mg once daily. The treatment with Casodex continued for three months and follow-up blood tests indicated a serum PSA of 5.7.
From August 2001, this patient started to combine Casodex with an oral administration of the herbal formula of the present invention. The intake dosage of the herbal formula was 2070 mg per day. This combination treatment continued for two months.
From October 2001, the dosage of this herb formula was increased to 2760 mg per day. Following PSA level measurement was 2.3 in November 2001.
The patient in this case study was a person. […] The PSA was measured to be 21.
The prostate has been monitored approximately every 6 months. As the PSA reading was between “13-17” on occasions, when readings were high, antibiotics were prescribed for prostatitis. The PSA was measured to be 18.7 at August of 2001. […]

Molecule | serum PSA levels
CC(=O)O[C@]1(C(C)=O)CC[C@H]2[C@@H]3C=C(Cl)C4=CC(=O)[C@@H]5C[C@@H]5[C@]4(C)[C@H]3CC[C@@]21C [Androcur, Cyproterone Acetate] | 28-62
Goserelin Acetate Implant [Zolodex] | 28-62
